Results are given in words; binding and its absence hold for the method and conditions named. Binding seen in cells or lysates may run through a third protein. Here binding means that the protein was enriched with, or labelled near, the bait; the list need not be complete. Tags and fused reporters may be left off the sequences shown.

By UniProt entry, the sequences of proteins in these tests, tags left out.
UniProt Q9UKL0: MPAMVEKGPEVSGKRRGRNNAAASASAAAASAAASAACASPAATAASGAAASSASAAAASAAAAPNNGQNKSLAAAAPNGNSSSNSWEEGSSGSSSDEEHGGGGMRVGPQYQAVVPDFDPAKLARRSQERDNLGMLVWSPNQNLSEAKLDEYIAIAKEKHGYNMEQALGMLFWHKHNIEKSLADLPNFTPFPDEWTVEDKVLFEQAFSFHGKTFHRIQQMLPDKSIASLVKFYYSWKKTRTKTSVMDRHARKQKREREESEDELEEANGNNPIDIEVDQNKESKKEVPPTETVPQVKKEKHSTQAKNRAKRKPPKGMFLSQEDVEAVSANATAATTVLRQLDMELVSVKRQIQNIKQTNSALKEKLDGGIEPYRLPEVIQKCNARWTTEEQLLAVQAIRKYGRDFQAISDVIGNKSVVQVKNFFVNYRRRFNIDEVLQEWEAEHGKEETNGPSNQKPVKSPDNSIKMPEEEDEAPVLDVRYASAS
UniProt Q09028: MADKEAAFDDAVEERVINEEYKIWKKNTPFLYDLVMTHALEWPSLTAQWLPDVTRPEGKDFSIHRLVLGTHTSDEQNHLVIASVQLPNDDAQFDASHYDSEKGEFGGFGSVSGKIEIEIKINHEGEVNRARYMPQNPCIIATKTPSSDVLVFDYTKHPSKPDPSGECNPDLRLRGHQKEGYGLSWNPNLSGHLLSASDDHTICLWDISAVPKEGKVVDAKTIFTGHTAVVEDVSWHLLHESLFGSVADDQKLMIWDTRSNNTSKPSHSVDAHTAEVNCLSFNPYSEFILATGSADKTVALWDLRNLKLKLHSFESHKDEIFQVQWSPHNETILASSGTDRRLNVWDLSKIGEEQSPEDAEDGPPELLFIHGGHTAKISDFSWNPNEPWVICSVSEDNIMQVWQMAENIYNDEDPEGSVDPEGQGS
UniProt Q93008: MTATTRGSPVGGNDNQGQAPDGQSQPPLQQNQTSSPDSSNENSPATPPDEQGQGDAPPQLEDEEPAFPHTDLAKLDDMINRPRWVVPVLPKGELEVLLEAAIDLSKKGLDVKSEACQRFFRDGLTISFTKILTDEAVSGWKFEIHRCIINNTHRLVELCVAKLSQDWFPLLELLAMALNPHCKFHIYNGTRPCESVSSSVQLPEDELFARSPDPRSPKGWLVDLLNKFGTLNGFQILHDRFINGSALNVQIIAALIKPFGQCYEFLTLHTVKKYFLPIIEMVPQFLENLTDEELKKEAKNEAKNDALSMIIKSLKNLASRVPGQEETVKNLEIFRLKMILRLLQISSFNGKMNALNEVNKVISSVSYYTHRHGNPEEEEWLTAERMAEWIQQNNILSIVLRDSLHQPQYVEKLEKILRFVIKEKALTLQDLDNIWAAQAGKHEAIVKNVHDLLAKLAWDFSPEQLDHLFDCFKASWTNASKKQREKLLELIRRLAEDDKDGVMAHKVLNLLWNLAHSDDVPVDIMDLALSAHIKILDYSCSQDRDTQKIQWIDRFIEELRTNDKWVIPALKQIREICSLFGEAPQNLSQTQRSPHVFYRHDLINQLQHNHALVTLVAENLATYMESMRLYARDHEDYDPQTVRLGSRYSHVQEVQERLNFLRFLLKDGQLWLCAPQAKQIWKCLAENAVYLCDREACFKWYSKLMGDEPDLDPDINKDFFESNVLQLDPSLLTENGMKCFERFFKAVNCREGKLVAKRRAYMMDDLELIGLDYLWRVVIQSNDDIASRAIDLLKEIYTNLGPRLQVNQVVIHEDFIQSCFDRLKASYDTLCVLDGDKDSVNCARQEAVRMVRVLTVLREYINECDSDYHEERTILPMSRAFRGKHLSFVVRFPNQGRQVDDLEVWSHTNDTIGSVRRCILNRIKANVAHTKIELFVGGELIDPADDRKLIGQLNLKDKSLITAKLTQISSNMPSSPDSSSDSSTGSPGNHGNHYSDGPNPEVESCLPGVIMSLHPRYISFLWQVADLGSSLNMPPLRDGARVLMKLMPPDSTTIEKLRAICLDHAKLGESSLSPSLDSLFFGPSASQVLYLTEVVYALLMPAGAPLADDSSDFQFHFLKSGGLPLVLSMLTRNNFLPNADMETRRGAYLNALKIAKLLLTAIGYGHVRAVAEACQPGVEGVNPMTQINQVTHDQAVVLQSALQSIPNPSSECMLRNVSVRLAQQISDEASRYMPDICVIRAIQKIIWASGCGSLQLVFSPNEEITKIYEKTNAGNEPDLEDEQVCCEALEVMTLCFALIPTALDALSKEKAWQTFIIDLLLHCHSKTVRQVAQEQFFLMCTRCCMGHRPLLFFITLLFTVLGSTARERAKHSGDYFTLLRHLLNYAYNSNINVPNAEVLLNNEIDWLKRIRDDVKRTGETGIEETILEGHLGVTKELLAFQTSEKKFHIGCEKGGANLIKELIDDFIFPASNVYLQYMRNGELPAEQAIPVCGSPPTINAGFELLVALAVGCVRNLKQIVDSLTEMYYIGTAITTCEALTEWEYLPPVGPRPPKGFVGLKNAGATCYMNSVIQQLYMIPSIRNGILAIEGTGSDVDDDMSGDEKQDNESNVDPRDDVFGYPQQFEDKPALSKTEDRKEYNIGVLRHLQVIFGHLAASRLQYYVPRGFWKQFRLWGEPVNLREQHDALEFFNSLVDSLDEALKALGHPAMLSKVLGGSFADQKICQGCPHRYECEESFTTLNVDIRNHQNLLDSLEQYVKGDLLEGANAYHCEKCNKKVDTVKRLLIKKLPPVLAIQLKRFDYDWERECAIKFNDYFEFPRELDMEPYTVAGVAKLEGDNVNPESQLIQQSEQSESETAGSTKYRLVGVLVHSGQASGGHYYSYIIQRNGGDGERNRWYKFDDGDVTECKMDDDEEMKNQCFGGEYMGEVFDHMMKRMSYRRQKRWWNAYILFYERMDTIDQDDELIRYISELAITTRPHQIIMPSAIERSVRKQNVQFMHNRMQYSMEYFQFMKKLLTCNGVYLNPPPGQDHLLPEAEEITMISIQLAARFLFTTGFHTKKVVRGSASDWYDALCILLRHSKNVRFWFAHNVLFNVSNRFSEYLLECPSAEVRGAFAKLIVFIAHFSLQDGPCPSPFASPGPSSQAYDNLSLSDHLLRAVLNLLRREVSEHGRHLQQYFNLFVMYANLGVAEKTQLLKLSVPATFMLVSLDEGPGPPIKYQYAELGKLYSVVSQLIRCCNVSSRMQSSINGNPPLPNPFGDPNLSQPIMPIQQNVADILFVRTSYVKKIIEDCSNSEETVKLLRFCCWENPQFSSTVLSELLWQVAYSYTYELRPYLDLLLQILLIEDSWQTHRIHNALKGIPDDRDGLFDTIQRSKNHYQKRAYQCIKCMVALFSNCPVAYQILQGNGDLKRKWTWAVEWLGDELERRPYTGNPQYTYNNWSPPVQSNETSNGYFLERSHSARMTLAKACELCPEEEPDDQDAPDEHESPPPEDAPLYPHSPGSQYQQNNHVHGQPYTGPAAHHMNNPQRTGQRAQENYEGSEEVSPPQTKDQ

The target of this experiment is T1, FLAG-tagged ZNF516 (Zinc-finger protein 516) (human) (UniProt Q92618).
T1 sequence: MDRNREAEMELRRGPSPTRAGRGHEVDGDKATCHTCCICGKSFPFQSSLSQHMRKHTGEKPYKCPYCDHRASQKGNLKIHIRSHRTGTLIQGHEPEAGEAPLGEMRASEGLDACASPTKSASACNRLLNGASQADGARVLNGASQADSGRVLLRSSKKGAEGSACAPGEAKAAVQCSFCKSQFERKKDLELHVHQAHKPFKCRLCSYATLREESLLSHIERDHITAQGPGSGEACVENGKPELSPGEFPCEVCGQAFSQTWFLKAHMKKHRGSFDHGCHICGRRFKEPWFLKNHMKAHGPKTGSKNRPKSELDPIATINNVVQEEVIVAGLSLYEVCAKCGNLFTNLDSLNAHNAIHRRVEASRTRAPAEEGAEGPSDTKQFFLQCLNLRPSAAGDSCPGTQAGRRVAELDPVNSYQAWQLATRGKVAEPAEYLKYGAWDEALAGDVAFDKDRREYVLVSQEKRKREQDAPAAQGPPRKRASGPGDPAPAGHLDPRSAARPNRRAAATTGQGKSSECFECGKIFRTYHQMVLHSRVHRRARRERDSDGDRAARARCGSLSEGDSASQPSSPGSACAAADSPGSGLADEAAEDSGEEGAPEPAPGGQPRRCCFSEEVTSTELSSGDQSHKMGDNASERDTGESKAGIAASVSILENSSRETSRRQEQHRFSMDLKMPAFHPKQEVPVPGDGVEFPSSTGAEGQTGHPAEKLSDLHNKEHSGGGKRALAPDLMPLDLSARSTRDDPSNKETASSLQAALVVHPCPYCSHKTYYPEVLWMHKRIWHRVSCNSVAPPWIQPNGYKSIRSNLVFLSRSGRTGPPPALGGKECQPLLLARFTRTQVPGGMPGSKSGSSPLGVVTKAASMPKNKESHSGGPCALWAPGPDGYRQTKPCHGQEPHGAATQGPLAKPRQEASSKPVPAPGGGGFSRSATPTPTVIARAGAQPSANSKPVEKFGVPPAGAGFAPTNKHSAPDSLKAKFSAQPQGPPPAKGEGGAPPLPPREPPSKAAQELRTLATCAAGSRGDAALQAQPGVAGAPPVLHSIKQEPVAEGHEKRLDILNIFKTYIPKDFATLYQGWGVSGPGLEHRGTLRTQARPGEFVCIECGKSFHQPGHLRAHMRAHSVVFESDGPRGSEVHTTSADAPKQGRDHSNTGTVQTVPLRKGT
The experiment can be described thus: affinity purification with mass spectrometry; whole-cell extracts of HEK293T stably expressing FLAG-ZNF516 on anti-FLAG M2 affinity gel column, washed with cold PBS plus 0.1% Nonidet P-40, eluted with FLAG peptide, SDS-PAGE, silver stain, LC-MS/MS of bands.

With “CoREST (corepressor of RE1 silencing transcription factor), endogenous (from UniProt Q9UKL0 1-485)”, the binding entry is listed as “binds”.

In the case of “CtBP2 (C-terminal binding protein 2), endogenous (from UniProt P56545 1-445)”, the binding result is listed as “binds”.

With “RBBP4, endogenous (from UniProt Q09028 1-425)”, the binding entry is given as “binds”.

On to “USP9X, endogenous (from UniProt Q93008 1-2554)”, for which the binding entry is “binds”.

B1: ZEB2, endogenous (protein, UniProt O60315 1-1214)
chain: MKQPIMADGPRCKRRKQANPRRKNVVNYDNVVDTGSETDEEDKLHIAEDDGIANPLDQETSPASVPNHESSPHVSQALLPREEEEDEIREGGVEHPWHNNEILQASVDGPEEMKEDYDTMGPEATIQTAINNGTVKNANCTSDFEEYFAKRKLEERDGHAVSIEEYLQRSDTAIIYPEAPEELSRLGTPEANGQEENDLPPGTPDAFAQLLTCPYCDRGYKRLTSLKEHIKYRHEKNEENFSCPLCSYTFAYRTQLERHMVTHKPGTDQHQMLTQGAGNRKFKCTECGKAFKYKHHLKEHLRIHSGEKPYECPNCKKRFSHSGSYSSHISSKKCIGLISVNGRMRNNIKTGSSPNSVSSSPTNSAITQLRNKLENGKPLSMSEQTGLLKIKTEPLDFNDYKVLMATHGFSGTSPFMNGGLGATSPLGVHPSAQSPMQHLGVGMEAPLLGFPTMNSNLSEVQKVLQIVDNTVSRQKMDCKAEEISKLKGYHMKDPCSQPEEQGVTSPNIPPVGLPVVSHNGATKSIIDYTLEKVNEAKACLQSLTTDSRRQISNIKKEKLRTLIDLVTDDKMIENHNISTPFSCQFCKESFPGPIPLHQHERYLCKMNEEIKAVLQPHENIVPNKAGVFVDNKALLLSSVLSEKGMTSPINPYKDHMSVLKAYYAMNMEPNSDELLKISIAVGLPQEFVKEWFEQRKVYQYSNSRSPSLERSSKPLAPNSNPPTKDSLLPRSPVKPMDSITSPSIAELHNSVTNCDPPLRLTKPSHFTNIKPVEKLDHSRSNTPSPLNLSSTSSKNSHSSSYTPNSFSSEELQAEPLDLSLPKQMKEPKSIIATKNKTKASSISLDHNSVSSSSENSDEPLNLTFIKKEFSNSNNLDNKSTNPVFSMNPFSAKPLYTALPPQSAFPPATFMPPVQTSIPGLRPYPGLDQMSFLPHMAYTYPTGAATFADMQQRRKYQRKQGFQGELLDGAQDYMSGLDDMTDSDSCLSRKKIKKTESGMYACDLCDKTFQKSSSLLRHKYEHTGKRPHQCQICKKAFKHKHHLIEHSRLHSGEKPYQCDKCGKRFSHSGSYSQHMNHRYSYCKREAEEREAAEREAREKGHLEPTELLMNRAYLQSITPQGYSDSEERESMPRDGESEKEHEKEGEDGYGKLGRQDGDEEFEEEEEESENKSMDTDPETIRDEEETGDHSMDDSSEDGKMETKSDHEEDNMEDGM
On to B1, for which the binding entry is recorded as “binds”.

The values are drawn from article PMC5612949.
